According to article PMC6331810, “Novel Coumarin-Containing Aminophosphonatesas Antitumor Agent: Synthesis, Cytotoxicity, DNA-Binding and Apoptosis Evaluation” (Molecules, 2015):

Tested on: CT-DNA
Assay: Spectrofluorimetric titration with CT-DNA (Stern-Volmer and binding constants)
Set-up: species or system calf
Conditions: from lg(F0/F-1) vs lg[DNA]; Tris-HCl buffer pH 7.2
Description: The DNA binding properties of compounds 8a–8j were evaluated based on their affinity or interaction with CT-DNA, measured with fluorescence spectrometric titration.
The calibration curve for determination of DNA was constructed by adding different proportion of DNA to a 2.0 × 10^−3 M compound 8j solution (pH = 7.2 Tris-HCl buffer). […] [Q] is the concentration of quencher. KSV is the Stern-Volmer constant and KQ is the bimolecular quenching rate constant. τ0 is the lifetime of the fluorophore in the absence of quencher and for most biomolecules τ0 is about 10^−8 s. The Stern-Volmer constant, KSV, for compound 8j has been determined from the plot of F0/F-1 vs. [DNA] (see Figure 2) and found to be 5.11 × 10^2 M^−1.
When small molecules binding independently to a set of equivalent sites on a macromolecule, the equilibrium between free and bound molecules is given by the equation [28]: (2) lg (F0/F-1) = lgKb + nlg[Q] where Kb and n are the binding constant and the number of binding sites, respectively, which could be got from the curve of lg(F0/F-1) vs. lg[Q]. The plot of lg(F0/F-1) vs. lg[DNA] has been shown in Figure 3 for compound 8j and indicates a simple binding process for the compound.
All fluorescence experiments were carried out on a Perkin-Elmer LS50B luminescence spectrometer. Fluorescence spectra were measured at rt using quartz cells of 1cm path. To the solutions of the drugs (2.0 × 10^−3 M) in 2.5 mL Tris-HCl buffer (pH = 7.2) were added aliquots of CT-DNA (2.0 × 10^−3 M) solution containing drugs (2.0 × 10^−3 M) in 2.5 mL Tris-HCl buffer (pH = 7.2). This operation ensured that the concentration of CT-DNA increased gradually from 0 to 360 µM, while the concentrations of drugs were kept constant. The mixing was achieved by stirring for 10min. Then, the corresponding fluorescence spectra were measured (ex 325 nm, ex/em 1.5 nm/1.5 nm). Binding constants were derived from the modified.

| SMILES | n (number of binding sites) |
| --- | --- |
| Cc1cc(=O)oc2cc(O)ccc12 [Compound 2, 7-Hydroxy-4-methyl-2H-chromen-2-one, reference compound] | 1.00 |
| CCOP(=O)(OCC)C(NC(=O)CCOc1ccc2c(C)cc(=O)oc2c1)c1ccccc1 (centres unmarked) [Compound 8a, Diethyl(3-(4-methyl-2-oxo-2H-chromen-7-yloxy)propanamido)(phenyl)methylphosphonate] | 0.96 |
| CCOP(=O)(OCC)C(NC(=O)CCOc1ccc2c(C)cc(=O)oc2c1)c1ccccc1F (centres unmarked) [Compound 8b, Diethyl(3-(4-methyl-2-oxo-2H-chromen-7-yloxy)propanamido)(2-fluorophenyl)methylphospho-nate] | 0.83 |
| CCOP(=O)(OCC)C(NC(=O)CCOc1ccc2c(C)cc(=O)oc2c1)c1ccccc1Cl (centres unmarked) [Compound 8c, Diethyl(3-(4-methyl-2-oxo-2H-chromen-7-yloxy)propanamido)(2-chlorophenyl)methylphospho-nate] | 0.83 |
| CCOP(=O)(OCC)C(NC(=O)CCOc1ccc2c(C)cc(=O)oc2c1)c1ccc(Cl)cc1 (centres unmarked) [Compound 8d, Diethyl(3-(4-methyl-2-oxo-2H-chromen-7-yloxy)propanamido)(4-chlorophenyl)methylphospho-nate] | 1.05 |
| CCOP(=O)(OCC)C(NC(=O)CCOc1ccc2c(C)cc(=O)oc2c1)c1ccccc1Br (centres unmarked) [Compound 8e, Diethyl(3-(4-methyl-2-oxo-2H-chromen-7-yloxy)propanamido)(2-bromophenyl)methylphospho-nate] | 0.84 |
| CCOP(=O)(OCC)C(NC(=O)CCOc1ccc2c(C)cc(=O)oc2c1)c1cccc(Br)c1 (centres unmarked) [Compound 8f, Diethyl(3-(4-methyl-2-oxo-2H-chromen-7-yloxy)propanamido)(3-bromophenyl)methylphospho-nate] | 1.42 |
| CCOP(=O)(OCC)C(NC(=O)CCOc1ccc2c(C)cc(=O)oc2c1)c1ccc(Br)cc1 (centres unmarked) [Compound 8g, Diethyl(3-(4-methyl-2-oxo-2H-chromen-7-yloxy)propanamido)(4-bromophenyl)methylphosph-onate] | 1.04 |
| CCOP(=O)(OCC)C(NC(=O)CCOc1ccc2c(C)cc(=O)oc2c1)c1ccccc1OC (centres unmarked) [Compound 8h, Diethyl(3-(4-methyl-2-oxo-2H-chromen-7-yloxy)propanamido)(2-methoxyphenyl)methylphos-phonate] | 1.95 |
| CCOP(=O)(OCC)C(NC(=O)CCOc1ccc2c(C)cc(=O)oc2c1)c1ccc2ccccc2c1 (centres unmarked) [Compound 8i, Diethyl(3-(4-methyl-2-oxo-2H-chromen-7-yloxy)propanamido)(naphthalen-2-yl)methylphosph-onate] | 0.96 |
| CCOP(=O)(OCC)C(C)(NC(=O)CCOc1ccc2c(C)cc(=O)oc2c1)c1ccccc1 (centres unmarked) [Compound 8j, Diethyl 1-(3-(4-methyl-2-oxo-2H-chromen-7-yloxy)propanamido)-1-phenylethylphosphonate] | 1.43 |
